From ChEMBL document CHEMBL3988442, “University of Dundee, Small-Polar-MMV Screening Library” (2021).

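Whole-cell assay for inhibitors of Mycobacterium tuberculosis growth, labelled Cornell in the record; the read-out is not stated. The concentration is filed as 10 mM, unlikely as a test dose, so the dose is not known. The record gives no direction; compounds strong in two other growth screens of this library score well above the rest, so higher reads as stronger inhibition. Size under these conditions: about 53,000 compounds, about 900 of them at 50% or above in at least one test.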

Values are the deposited “Percent Effect”, in %. How 0% and 100% were set is not recorded. Most values in the screen are low, and negative values occur. The compounds are a random part of those screened.

With Cc1ccc(CC(=O)N2CCC(Nc3ccc(C)nn3)CC2)cn1 the screen gave -1.812%. For O=C(COc1cccc(F)c1)N1C[C@@H](CN2CCCC2)C[C@H](CO)C1 the result was 11.27%. Result for CC(C)c1noc(CN(CCC2CCCCC2)CC(N)=O)n1 was 2.375%. Result for CC1N(CC2CC2)C(=O)COC12CCN(C(=O)c1ccno1)CC2 (stereo unspecified) was 15.04%. With COc1ccc(NC(=O)c2cnc(C3CCN(C(C)=O)C3)nc2C)cc1 (stereo unspecified) the screen gave 22.88%. Cc1cc(CNC(=O)CN2CCN(C(=O)OC(C)(C)C)CC2)ccc1F read 15.92%. With N#Cc1ccc(OCCN2CCNC(=O)C2c2cccs2)cc1 (stereo unspecified) the screen gave 45.44%.

Cc1ccc(CC(NC(=O)CN(C)C2CC2)c2ccccn2)cc1 (stereo unspecified) read 16.62%. CN(C)C(C(=O)N1CCCC1)c1ccccc1F (stereo unspecified) gave 10.63%. CCN(CC)c1ccc2ccc(C(=O)O)cn12 gave 27.18%. For COCC(=O)N1CCCC1c1ccnc(Nc2cnccn2)n1 (stereo unspecified) the result was -8.578%. Result for C[C@@H]1CN(c2nc(O)cc(Cc3ccccc3F)n2)C[C@H](C)O1 was -1.977%. For O=C(c1ccc(F)c(F)c1)N1CCCC1CN1CCCC1 (stereo unspecified) the result was 9.801%. Result for COc1cc(C)cc(C(C(=O)O)N(C)Cc2cnn(C)c2)c1OC (stereo unspecified) was 0.5945%.

CN(CCNC(=O)NCc1ccncc1)C1CCCC1 read 5.035%. Result for O=C(O)C(F)(F)F.O=C(O)C(F)(F)F.c1cnc(N2CCCC3(CCN(CC4CC4)C3)C2)nc1 (stereo unspecified) was 9.17%. Result for Cn1cc(C(=O)N2CCCC(c3ncc[nH]3)C2)cn1 (stereo unspecified) was -16.15%. Nc1cc2c(nn1)CCN(C(=O)CC1CCCC1)C2 read 9.501%. Result for O=C(O)c1ccc(S(=O)(=O)Nc2ccc(Cl)c(F)c2)c(F)c1 was -0.5698%. Cc1nccn1C1CCCN(C(=O)c2ccc3cc[nH]c3c2)C1 (stereo unspecified) read -11.65%. Result for CC(=O)Nc1ccn(Cc2ccccc2)n1 was 24.6%.

Result for COc1ccccc1Oc1ncccc1CNC(=O)[C@@H](N)CCO was -2.728%. For Cc1ccc(CN2CCOC3(COCCN(C(C)C)C3)C2)s1.O=C(O)C(F)(F)F.O=C(O)C(F)(F)F (stereo unspecified) the result was 9.873%. Result for Cc1cc(NC(=O)N(CCC#N)CCCN(C)C)ccc1F was -14.41%. O=C(O)c1cc(NS(=O)(=O)c2ccccc2F)ccc1N1CCSCC1 gave -53.64%. With CC(C)c1nnc(CNc2ccc(SC(F)(F)F)cc2)o1 the screen gave -1.058%. NCCn1nc(C2CCN(Cc3ccccc3)C2)c2nccnc21 (stereo unspecified) gave -10.82%. With Cc1cnn(CC2CCCN2Cc2coc(-c3cccs3)n2)c1 (stereo unspecified) the screen gave 14.18%.

Cc1cc(C)nc(N2CCN(Cc3cc4n(n3)CCNC4)CC2)n1 read -18.12%. O=C(c1ccnc(N2CCOC(C(F)(F)F)C2)c1)N1CCCC1 (stereo unspecified) read 0.3337%. Result for CCOC(=O)C1(O)CCN(C(=O)Nc2cccc(CC)c2)CC1 was -4.569%. With O=C(NCCNC1CCCCC1)c1cccs1 the screen gave 16.06%. CCC(C)(NCC(=O)N(c1ccccc1)C(C)C)c1nc(C)cs1 (stereo unspecified) gave -14.16%. Cc1cnc2n(c1=O)C(CC(=O)NCc1ccccc1Cl)CS2 (stereo unspecified) gave -10.01%. CCN1CC(C(=O)NC(C)(C)CC(C)(C)C)CC1=O (stereo unspecified) gave 6.827%.

Result for Cc1cc(N2CCC(N(C)C(=O)c3ccccc3F)CC2)nc(C)n1 was -9.51%. For COc1ccc(CN2CCCC2)cc1Oc1ccc2c(c1)CC(CN)O2 (stereo unspecified) the result was -33.66%. Result for COc1cccc(C(=O)NS(=O)(=O)c2cccc(C#N)c2)c1OC was 13.35%. For O=C(O)C(F)(F)F.[H][C@@]12CN(C(=O)c3ccccc3)CCO[C@]1([H])CN(c1cnccn1)C2 the result was 36.55%. With Cc1noc(C(C)C)c1C(=O)NCc1cccnc1 the screen gave -36.86%. COC(=O)N1CCc2ccccc2C1C(=O)NCc1cccs1 (stereo unspecified) read 16%. COc1ccccc1Nc1nc2c(C)nn(C)c2c(=O)n1C gave -35.16%.

With O=C(NCc1ccc(F)cc1)N1CCC(C2OCCO2)CC1 the screen gave 9.763%.

For reference, 5 entries once more:

Compound	effect
O=C(O)C(F)(F)F.[H][C@@]12CN(C(=O)c3ccccc3)CCO[C@]1([H])CN(c1cnccn1)C2	36.55
Cc1cc(N2CCC(N(C)C(=O)c3ccccc3F)CC2)nc(C)n1	-9.51
CC(=O)Nc1ccn(Cc2ccccc2)n1	24.6
CCOC(=O)C1(O)CCN(C(=O)Nc2cccc(CC)c2)CC1	-4.569
COc1ccc(NC(=O)c2cnc(C3CCN(C(C)=O)C3)nc2C)cc1 (stereo unspecified)	22.88